Experiment [1] concerns the target 纯化的ENO2蛋白 (coating protein of the Example 7 ELISA) (human) (UniProt P09104). Put plainly: ELISA result of Example 7 step 2, told again with the immunofluorescence expression result.
Experiment [2] has the same target. The experiment is described as follows: ELISA, ENO2-coated plate (100 ng/well), 293T supernatant, HRP anti-IgG / anti-kappa secondary. For orientation: An ELISA detects its analyte on a solid surface through an enzyme-linked reagent.

Protein sequences, listed by entry. Tags and fused reporters are not part of them.
UniProt P09104: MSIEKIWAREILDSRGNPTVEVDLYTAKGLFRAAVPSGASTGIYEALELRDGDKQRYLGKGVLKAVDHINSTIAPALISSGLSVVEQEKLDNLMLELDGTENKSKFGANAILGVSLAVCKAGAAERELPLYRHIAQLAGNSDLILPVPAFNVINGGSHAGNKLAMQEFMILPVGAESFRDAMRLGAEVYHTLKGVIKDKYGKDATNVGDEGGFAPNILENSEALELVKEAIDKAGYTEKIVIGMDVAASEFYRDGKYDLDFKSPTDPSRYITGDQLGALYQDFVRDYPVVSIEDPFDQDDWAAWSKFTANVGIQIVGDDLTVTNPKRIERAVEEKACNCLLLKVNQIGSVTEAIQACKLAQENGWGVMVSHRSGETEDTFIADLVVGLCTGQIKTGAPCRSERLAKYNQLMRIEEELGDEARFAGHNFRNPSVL

Results are given in words; binding and its absence hold for the method and conditions named. Some binding calls cover weakened binding; strength is not graded here.

For “重组4C11单克隆抗体 (4C11mG1+4C11mk co-transfected in 293T cells) (from UniProt P01868 1-324; P01837 1-107) (antibody)”, the binding result in experiment [1] and in experiment [2] was “binds” each time.

For the origin of these results see patent CN114426582A.
